Assay results published in PubChem BioAssay AID256 (DTP/NCI, 2004).
The list does not hold the whole screen: it is rich in T/C values a quarter to a half above the control, in often repeated tests (any T/C) and in doses without a T/C. Further doses and runs are listed elsewhere. T/C: endpoint of the treated group in % of that of the vehicle group. Some entries give survivors of the animals treated and no T/C: the source files T/C as zero there, which appears to mark a toxic dose or a test without result, not a measured value. Some survivor counts are full or nearly so, which does not show that the dose was tolerated: survival well below the control is almost never listed, so the zero probably covers shortened survival too. Survivors were counted at the toxicity check, usually on the fifth day, unless a day is given; later deaths do not show. Schedules are NCI's codes, taken here to give the interval after Q, in days (D) or hours (H), and the number of doses after X. For survival time, the PubChem record calls one and a half times the control and up active, and a quarter to a half above the control has no call in these data; cut-offs in other NCI protocols can differ. Some T/C values are followed by the survivors on the day toxicity was checked, most often the fifth; without a count, all were alive then.

Tested on: CD2F1 mice, L1210 leukemia ip, survival T/C
Experiment: NCI In Vivo Anticancer Drug Screen. Data for tumor model L1210 Leukemia (intraperitoneal) in CD2F1 (CDF1) mice
Conditions: higher T/C = longer survival
Summary of the method: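 Ratio T/C, where T is the treated-group value and C the vehicle-dosed control value, from mice implanted with a transplantable tumor.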

[1] = T/C endpoint: mean survival time, dose: 400.0 mg/kg/injection, schedule: Q04DX002 (ip), vehicle: saline with Tween-80

With `OCC1OC(n2cnc3c(SCc4ccccc4)ncnc32)C(O)C1O` (stereo unspecified) the T/C (T/C endpoint: mean survival time, dose: 88.0 mg/kg/injection, schedule: Q01DX009 (ip), vehicle: saline) was 127 % of control, the T/C (T/C endpoint: mean survival time, dose: 176.0 mg/kg/injection, schedule: Q01DX001 (ip), vehicle: other) was 127 % of control and the T/C (T/C endpoint: mean survival time, dose: 264.0 mg/kg/injection, schedule: Q01DX001 (ip), vehicle: other) was 132 % of control. For the same compound, the T/C (T/C endpoint: mean survival time, dose: 300.0 mg/kg/injection, schedule: Q01DX009 (ip), vehicle: saline) was 138 % of control [5 of 6 alive] and the survivor count (T/C endpoint: mean survival time, dose: 600.0 mg/kg/injection, schedule: Q01DX001 (ip), vehicle: other) was 1 of 6.
`CN(C)c1cccc(C(C)(C)C)n1` was tested, and the survivor count (T/C endpoint: mean survival time, dose: 100.0 mg/kg/injection, schedule: Q04DX002 (ip), vehicle: saline) was 0 of 3, the survivor count (T/C endpoint: mean survival time, dose: 200.0 mg/kg/injection, schedule: Q04DX002 (ip), vehicle: saline) was 0 of 3 and the survivor count (T/C endpoint: mean survival time, dose: 400.0 mg/kg/injection, schedule: Q04DX002 (ip), vehicle: saline) was 0 of 3.
In the case of `CC1CN(C2(c3ccccc3)CCCCC2)CCC12OCCO2` (stereo unspecified), the survivor count [1] was 0 of 3.
In the case of `S=C=Nc1cccc(Cl)c1`, the survivor count (T/C endpoint: mean survival time, dose: 150.0 mg/kg/injection, schedule: Q01DX009 (ip), vehicle: saline with Tween-80) was 4 of 6 and the survivor count (T/C endpoint: mean survival time, dose: 300.0 mg/kg/injection, schedule: Q01DX009 (ip), vehicle: saline with Tween-80) was 1 of 6.
With `COc1ccc(/C=N\NC(=O)CNC(=O)Nc2cccc(C(F)(F)F)c2)cc1OC` the survivor count (T/C endpoint: mean survival time, dose: 25.0 mg/kg/injection, schedule: Q01DX009 (ip), vehicle: saline with Tween-80) was 3 of 3 and the survivor count (T/C endpoint: mean survival time, dose: 50.0 mg/kg/injection, schedule: Q01DX009 (ip), vehicle: saline with Tween-80) was 3 of 3.
With `CCOC(=O)c1ccc(NC(=O)CCOc2ccccc2)cc1` the survivor count (T/C endpoint: mean survival time, dose: 100.0 mg/kg/injection, schedule: Q04DX002 (ip), vehicle: saline with Tween-80) was 3 of 3, the survivor count [1] was 6 of 6 and the survivor count (T/C endpoint: mean survival time, dose: 400.0 mg/kg/injection, schedule: Q04DX003 (ip), vehicle: saline with Tween-80) was 6 of 6.
With `CCOC(=O)Cc1cnc(SC)[nH]c1=O` the survivor count (T/C endpoint: mean survival time, dose: 400.0 mg/kg/injection, schedule: Q04DX003 (ip), vehicle: Klucel (hydroxypropylcellulose) (HPC)) was 6 of 6.
`O=S(=O)(O)O.[Pt].c1ccc([PH+](c2ccccc2)c2ccccc2)cc1.c1ccc([PH+](c2ccccc2)c2ccccc2)cc1.c1ccc([PH+](c2ccccc2)c2ccccc2)cc1` was tested, and the survivor count (T/C endpoint: mean survival time, dose: 50.0 mg/kg/injection, schedule: Q04DX003 (ip), vehicle: distilled water + Tween-80) was 0 of 6, the survivor count (T/C endpoint: mean survival time, dose: 100.0 mg/kg/injection, schedule: Q04DX003 (ip), vehicle: distilled water + Tween-80) was 0 of 6 and the survivor count (T/C endpoint: mean survival time, dose: 200.0 mg/kg/injection, schedule: Q04DX003 (ip), vehicle: distilled water + Tween-80) was 0 of 6.
`CCN(CC)CC(C)(C)C(=O)/C=C/c1ccc(/C=C/C(=O)C(C)(C)CN(CC)CC)cc1` was tested, and the survivor count (T/C endpoint: median survival time, dose: 60.0 mg/kg/injection, schedule: Q01DX005 (ip), vehicle: saline) was 0 of 6.
